According to PMC7226521:
Results are given in words; binding and its absence hold for the method and conditions named. Binding seen in cells or lysates may run through a third protein. Some results given as binding are weak or reduced against the parent protein; the word gives no strength.

Tests used:
[1] = molecular target: calreticulin (CRT) (human (endogenous in MDA-MB-231 and MDA-MB-231/DX)) (UniProt P27797); experiment: co-IP; 100 ug plasma membrane-associated proteins (surface biotinylation) of MDA-MB-231 and MDA-MB-231/DX cells immunoprecipitated with anti-CRT, blotted for Pgp; cells treated 24 h with 5 uM doxorubicin, with or without 75 nM Tariquidar or 75 nM R-3
[2] = molecular target: calreticulin (CRT) (human (endogenous in MDA-MB-231 and MDA-MB-231/DX)) (UniProt P27797); experiment: proximity ligation; DuoLink In Situ Kit on MDA-MB-231 and MDA-MB-231/DX cells with mouse anti-Pgp (UIC-2) and rabbit anti-CRT (PA3-900); cells treated 24 h with 5 uM doxorubicin, with or without 75 nM Tariquidar or 75 nM R-3

ATP Binding Cassette transporter B1 or P-glycoprotein (ABCB1/Pgp) (from UniProt P08183 1-1280)
binding [1]: binds | binding [2]: binds
